These are yes or no findings as the source states them, for the method shown. For some assays here: In cells and extracts the contact can be indirect. Some entries that bind do so weakly or less than the wild type.

The target in assay [1] is N-terminal intracellular domain (amino acid position 1-127) of Nav1.8 as in-frame fusion with the LexA-DNA binding domain (two-hybrid bait, pEG202) (rat). Nature of the assay: yeast two-hybrid screen, bait LexA-Nav1.8 1-127.
The target is the same in assay [2]. Nature of the assay: yeast two-hybrid screen (beta-galactosidase activity and growth without leucine), bait LexA-Nav1.8 1-127.
Assay [3] addresses GST-N3 (rat) (UniProt Q62968). In words: GST pull-down.
For assay [4], the target named is GST-N3 (rat) (UniProt Q62968). In words: GST pull-down on glutathione-sepharose beads, anti-GFP immunoblot. On the technique in general: Immunoblotting shows a protein as a band on a membrane.
The target of assay [5] is GFP/p11-2 fusion protein (rat) (UniProt P05943). Described as above.

“full length rat p11 expressed as in-frame fusion with the Gal4 transcriptional activation domain (two-hybrid library clone) (from UniProt P05943 1-95)”: the binding entry in assay [1] and in assay [2] was “binds” in each case.

B1: GFP-p11 fusion protein (other, not shown: large carriers; small tags and cut ends)
chain: MPSQMEHAMETMMLTFHRFAGEKNYLTKEDLRVLMEREFPGFLENQKDPLAVDKIMKDLDQCRDGKVGFQSFLSLVAGLIIACNDYFVVHMKQKK
notes: Expressed from pBS-GFP/p11 in COS-7 cells and used as cell extract
Regarding B1, the binding entry in assay [3] and in assay [4] was “binds” each time.

B2: GST/Nav1.8 N-terminus fusion protein, designated GST-SNS(I) (other)
chain: MELPFASVGTTNFRRFTPESLAEIEKQIAAHRAAKKARTKHRGQEDKGEKPRPQLDLKDCNQLPKFYGELPAELVGEPLEDLDPFYSTHRTFMVLNKSRTISRFSATWALWLFSPFNLIRRTAIKVS
notes: also called GST/SNS(I) fusion protein; not shown: glutathione-S-transferase (GST) as encoded by vector pGEX-5X-1 (Amersham Pharmacia Biotech); species and limits not stat; vector-encoded residues between GST and the EcoRI site of pGEX-5X-1
As for B2, the binding result in assay [5] is “binds”.

Values taken from patent publication US20040248207A1 (UNIVERSITY COLLEGE LONDON, published 2004).
